The values that follow come from PubChem BioAssay AID330 (DTP/NCI, 2004).

The list shows only some results of the screen, not a fair sample: it gathers tests that were run many times, whatever their T/C, doses with no T/C, and many T/C values between a quarter and a half above the control. Further doses and runs are listed elsewhere. T/C is the treated group as % of the vehicle group. Some doses have a count of surviving animals in place of a T/C: the source files T/C as zero there, which appears to mark a toxic dose or a test without result, not a measured value. Some doses without a T/C left all or most animals alive at the check, yet need not have been tolerated: the source hardly ever lists a survival T/C far under the control, and the zero likely stands for such cases as well. Counts of survivors are from the toxicity check (mostly the fifth day) where no day follows; animals may have died later. Schedule codes are those of the source, read here as Q, the interval in days (D) or hours (H), X, the number of doses. Some entries were tested several times; their values stand side by side, smallest first. Where survival is the endpoint, this PubChem deposit counts one and a half times the control or more as active, and values a quarter to a half above the control carry no call in these data; other NCI protocols may use other cut-offs. Some T/C values are followed by the survivors on the day toxicity was checked, most often the fifth; without a count, all were alive then.

The assay deals with P388 leukemia ip, CD2F1 mice, survival T/C. Briefly: NCI In Vivo Anticancer Drug Screen. Data for tumor model P388 Leukemia (intraperitoneal) in CD2F1 (CDF1) mice. To be noted: T/C endpoint: median survival time, higher T/C = longer survival.
[1] abbreviates: dose: 200.0 mg/kg/injection, schedule: Q01DX009 (ip), vehicle: saline with Tween-80.
The mark [2] stands for this setting: dose: 240.0 mg/kg/injection, schedule: Q01DX005 (ip), vehicle: Klucel (hydroxypropylcellulose) (HPC).
Where [3] appears, read: dose: 0.13 mg/kg/injection, schedule: Q01DX009 (ip), vehicle: Klucel (hydroxypropylcellulose) (HPC).
[4] abbreviates: dose: 0.25 mg/kg/injection, schedule: Q01DX009 (ip), vehicle: Klucel (hydroxypropylcellulose) (HPC).
[5] abbreviates: dose: 6.25 mg/kg/injection, schedule: Q01DX009 (ip), vehicle: saline.
Setting [6] is: dose: 200.0 mg/kg/injection, schedule: Q01DX009 (ip), vehicle: saline.

On to `O=[N+]([O-])/C=C/c1ccccc1Cl`, for which the T/C was 126 % of control (dose: 5.0 mg/kg/injection, schedule: Q01DX009 (ip), vehicle: other) and 136 % of control (dose: 15.0 mg/kg/injection, schedule: Q04DX003 (ip), vehicle: other). Further, the survivor count is recorded as 6 of 6 (dose: 20.0 mg/kg/injection, schedule: Q01DX009 (ip), vehicle: other); 0 of 6 (dose: 40.0 mg/kg/injection, schedule: Q01DX009 (ip), vehicle: other); 4 of 6 (dose: 60.0 mg/kg/injection, schedule: Q04DX003 (ip), vehicle: other); 0 of 6 (dose: 120.0 mg/kg/injection, schedule: Q04DX003 (ip), vehicle: other).
`c1ccc2c(c1)-c1ccccc1C1NC21` (stereo not drawn): where the note is “dose: 50.0 mg/kg/injection, schedule: Q01DX001 (ip), vehicle: saline with Tween-80”, the T/C was 130 [5 of 6 alive] and 137 % of control. Besides, the survivor count (dose: 100.0 mg/kg/injection, schedule: Q01DX001 (ip), vehicle: saline with Tween-80) is 0 of 6.
`CC(Nc1ccc(S(=O)(=O)Nc2ncccn2)cc1)c1ccc2cccnc2c1O` (stereo not drawn): the survivor count (dose: 400.0 mg/kg/injection, schedule: Q01DX001 (ip), vehicle: saline with Tween-80) is recorded as 0 of 6.
Consider `COC(=O)CCC1=C(OC)C(=O)C(OC)=CC1=O`, for which the survivor count under setting [1] was 3 of 6.
Regarding `CC1CCC(NC(=O)N(CCCl)N=O)CC1` (stereo not drawn), the T/C runs as follows: (dose: 1.25 mg/kg/injection, schedule: Q04DX003 (ip), vehicle: other) 126 % of control; (dose: 1.88 mg/kg/injection, schedule: Q04DX003 (ip), vehicle: other) 144 % of control; (dose: 2.0 mg/kg/injection, schedule: Q01DX009 (ip), vehicle: saline sonified) 137 % of control; (dose: 2.5 mg/kg/injection, schedule: Q04DX003 (ip), vehicle: other) 148 % of control; (dose: 15.0 mg/kg/injection, schedule: Q04DX003 (ip), vehicle: saline with Tween-80) 129 % of control. The survivor count was 4 of 6 (dose: 10.0 mg/kg/injection, schedule: Q04DX003 (ip), vehicle: other); 2 of 6 (dose: 20.0 mg/kg/injection, schedule: Q04DX003 (ip), vehicle: other); 0 of 6 (dose: 30.0 mg/kg/injection, schedule: Q04DX003 (ip), vehicle: other).
`CCN(CC)c1ccc2cc(-c3nc4ccccc4n3C)c(=O)oc2c1`: the T/C (dose: 100.0 mg/kg/injection, schedule: Q04DX003 (ip), vehicle: Klucel (hydroxypropylcellulose) (HPC)) is 129 % of control. The survivor count (dose: 400.0 mg/kg/injection, schedule: Q04DX003 (ip), vehicle: Klucel (hydroxypropylcellulose) (HPC)) is given as 3 of 6.
With `O=P(c1ccccc1)(c1ccccc1)c1ccccc1.O=P(c1ccccc1)(c1ccccc1)c1ccccc1.O=P(c1ccccc1)(c1ccccc1)c1ccccc1.O=P(c1ccccc1)(c1ccccc1)c1ccccc1.[Ni+2].[O-][Cl+3]([O-])([O-])O`, the survivor count runs as follows: (dose: 100.0 mg/kg/injection, schedule: Q01DX009 (ip), vehicle: saline with Tween-80) 6 of 6; under setting [1], 1 of 6.
As to `N#Cc1c2ccccc2cc[n+]1Cc1ccc2c(c1)OCO2`, the survivor count is 4 of 6 (dose: 25.0 mg/kg/injection, schedule: Q04DX002 (ip), vehicle: Klucel (hydroxypropylcellulose) (HPC)); 0 of 6 (dose: 50.0 mg/kg/injection, schedule: Q04DX002 (ip), vehicle: Klucel (hydroxypropylcellulose) (HPC)); 0 of 6 (dose: 100.0 mg/kg/injection, schedule: Q04DX002 (ip), vehicle: Klucel (hydroxypropylcellulose) (HPC)); 0 of 6 (dose: 200.0 mg/kg/injection, schedule: Q04DX002 (ip), vehicle: Klucel (hydroxypropylcellulose) (HPC)); 0 of 6 (dose: 400.0 mg/kg/injection, schedule: Q04DX002 (ip), vehicle: Klucel (hydroxypropylcellulose) (HPC)).
On to `COc1cccc2c1C(=O)c1c(O)c3c(c(O)c1C2=O)CC(=O)CC3OC1CC(NC(=O)C(F)(F)F)C(O)C(C)O1` (stereo not drawn), for which, where the note is “dose: 25.0 mg/kg/injection, schedule: Q01DX009 (ip), vehicle: other”, the survivor count was 6 of 6.
For `O=C1NC(c2ccccc2)C(c2ccccc2)(c2ccccc2)O1` (stereo not drawn), the survivor count under setting [1] is listed as 0 of 6.
Regarding `C/C(=N\NC(=S)N1CCSCC1)c1ccccn1`, the survivor count was 5 of 6 (dose: 25.0 mg/kg/injection, schedule: Q01DX005 (ip), vehicle: saline with Tween-80); 4 of 6 (dose: 50.0 mg/kg/injection, schedule: Q01DX005 (ip), vehicle: saline with Tween-80); 2 of 6 (dose: 100.0 mg/kg/injection, schedule: Q01DX005 (ip), vehicle: saline with Tween-80); 0 of 6 (dose: 200.0 mg/kg/injection, schedule: Q01DX005 (ip), vehicle: saline with Tween-80).
With `O=C(O)/C=C/c1ccc(O)c(O)c1`, the survivor count (dose: 600.0 mg/kg/injection, schedule: Q01DX009 (ip), vehicle: saline) is given as 3 of 6.
For `C=CC(=C)C1(O)c2ccccc2C(=O)N1C` (stereo not drawn), the survivor count under setting [2] is 1 of 6.
Take `CC1(C)C(=O)NC(=O)c2ccccc21`: the survivor count is recorded as 6 of 6 (dose: 100.0 mg/kg/injection, schedule: Q01DX005 (ip), vehicle: Klucel (hydroxypropylcellulose) (HPC)) and 0 of 6 (dose: 200.0 mg/kg/injection, schedule: Q01DX005 (ip), vehicle: Klucel (hydroxypropylcellulose) (HPC)).
On to `COc1c(Cl)cc2c(c1OC)N(C)C1N3C(=O)C4(C)SSC3(C(=O)N4C)C(O)C21O` (stereo not drawn), for which the survivor count runs as follows: (dose: 0.06 mg/kg/injection, schedule: Q01DX009 (ip), vehicle: Klucel (hydroxypropylcellulose) (HPC)) 6 of 6; under setting [3], 3 of 6; under setting [4], 0 of 6 and 5 of 6; (dose: 1.0 mg/kg/injection, schedule: Q01DX009 (ip), vehicle: Klucel (hydroxypropylcellulose) (HPC)) 5 of 6. For the same compound, the T/C runs as follows: under setting [3], 131 % of control; under setting [4], 126 % of control.
As to `CCOC(=O)C1=C(C(=O)c2cccc3ccccc23)C(c2ccc([N+](=O)[O-])cc2)C(C(=O)c2cccc3ccccc23)=C(C(=O)OCC)N1`, where the note is “dose: 120.0 mg/kg/injection, schedule: Q01DX005 (ip), vehicle: Klucel (hydroxypropylcellulose) (HPC)”, the survivor count is recorded as 6 of 6.
Consider `COC(=O)c1ccc(-c2ccccc2)cc1`, for which the survivor count (dose: 400.0 mg/kg/injection, schedule: Q01DX009 (ip), vehicle: Klucel (hydroxypropylcellulose) (HPC)) was 6 of 6.
Take `C[C@]12CC[C@H]3[C@@H](CCC4=C[C@@H](OC5OCC(OC6OC(CO)C(O)C(O)C6O)C(O)C5O)CC[C@@]43C=O)[C@@]1(O)CCC2C1=CC(=O)OC1` (stereo partly drawn): where the note is “dose: 0.25 mg/kg/injection, schedule: Q01DX009 (ip), vehicle: saline with Tween-80”, the T/C is 135 % of control.
Take `COC12c3c(C)cc(O)c4c(=O)occ(c34)C(=O)C1C13COC(=O)c4c(O)cc(C)c(c41)C(=O)C2C3OC(C)=O` (stereo not drawn): the survivor count by setting is: under setting [1], 2 of 3, 3 of 4, 4 of 5; (dose: 400.0 mg/kg/injection, schedule: Q01DX009 (ip), vehicle: saline with Tween-80) 0 of 3.
Consider `[CH3][Sn]([CH3])([Cl])[CH2]CC[CH2][Ge]([Cl])([Cl])[Cl]`, for which the T/C is, setting by setting: (dose: 3.12 mg/kg/injection, schedule: Q01DX009 (ip), vehicle: saline) 138 % of control; under setting [5], 133 % of control. Moreover, the survivor count runs as follows: under setting [5], 0 of 6; (dose: 12.5 mg/kg/injection, schedule: Q01DX009 (ip), vehicle: saline) 4 of 6; (dose: 25.0 mg/kg/injection, schedule: Q01DX009 (ip), vehicle: saline) 1 of 6; (dose: 50.0 mg/kg/injection, schedule: Q01DX009 (ip), vehicle: saline) 0 of 6; (dose: 100.0 mg/kg/injection, schedule: Q01DX009 (ip), vehicle: saline) 0 of 6; under setting [6], 0 of 6.
As for `COC(=O)c1nc(N)nc(C(=O)OC)c1C(=O)c1cccc([N+](=O)[O-])c1`, the survivor count under setting [2] is listed as 0 of 6.
On to `CCN(CC)CCOCCC1(C)Oc2ccc(Cl)cc2O1` (stereo not drawn), for which the survivor count under setting [6] was 1 of 6.
